Hit rate of the full screen: of about 320,000 compounds, about 22,000 (6.9%) were called active. This list was built around the results that the source calls inconclusive (neither active nor inactive); the mix of calls is not that of the screen. Calls come from the whole dose curve; as a rule, active = well fitted inhibition curve with a large enough effect; inconclusive = small, poorly fitted or top-dose-only effect, or another doubt; inactive = no such curve, though single readings can be large or run the other way. Where the call is inconclusive, the potency comes from a doubtful curve fit.
Assay: Primary qHTS for delayed death inhibitors of the malarial parasite plastid, 96 hour incubation
Details: P. falciparum luciferase reporter growth; series mostly up to 28.7 µM; activity change, negative = inhibition: at the top concentration
How it was run: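 96 h incubation, 37 C, 5% CO2, of luciferase-reporter P. falciparum-infected RBCs (2% hematocrit, 0.05% parasitemia final) with test compounds; endpoint luminescence.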
% is set by controls: 0 for no effect and ±100 for the full control effect; potency is the fitted concentration of half-maximal effect.

SMILES | Potency | activity change, negative = inhibition
Cc1cccc2cc(CN(CC(C)C)S(=O)(=O)c3ccccc3)c(=O)[nH]c12 | active: 13.1 µM | –
CCCc1cc(O)c2c(C)cc(=O)oc2c1 | active: 11.7 µM | –
CCc1c(C)nc2ccc(Br)cc2c1SCCC#N | – | inactive: -20.3%
O=C(CN1C(=O)c2ccccc2C1=O)N1CCN(S(=O)(=O)c2ccccc2)CC1 | inconclusive: 10.4 µM [inhibitor, single point] | –
Cc1cc(OC(=O)c2cccs2)ccc1C(C)C | inconclusive: 11.7 µM [inhibitor, partial curve, poor fit] | –
CN(c1ccccc1C(=O)O)S(=O)(=O)c1ccc2[nH]c(=O)[nH]c2c1 | inconclusive: 11.7 µM [inhibitor, partial curve, poor fit] | –
O=S(=O)(Nc1ccc(Cl)c(C(F)(F)F)c1)c1cnc[nH]1 | – | inactive: 14.1%
COc1ccc(NC(=O)c2cccc(NC(=O)C(C)C)c2)c([N+](=O)[O-])c1 | inconclusive: 18.5 µM [inhibitor, single point] | –
Cc1ccc(SCC(=O)NC(C)c2ccccc2)cc1 (stereo unspecified) | inconclusive: 9.28 µM [inhibitor, partial curve, poor fit] | –
Cc1ccccc1NC(=O)c1sc2nc(N3CCOCC3)c3c(c2c1N)CCCC3 | inconclusive: 13.1 µM [inhibitor, single point] | –
O=C(CCCN1C(=O)NC2(CCCC2)C1=O)Nc1ccc(Cl)c(S(=O)(=O)N2CCOCC2)c1 | inconclusive: 8.28 µM [inhibitor, partial curve] | –
O=C(NN1C(=O)/C(=C/C=C/c2ccccc2)SC1=S)c1ccncc1 | – | inactive: 0.284%
COc1ccc(CCNC(=O)Nc2ccc3c(c2)OCO3)cc1OC | inconclusive: 3.29 µM [inhibitor, full curve, poor fit] | –
O=C(/C=C\c1ccc2c(c1)OCO2)NC1(C(=O)Nc2ccc3c(c2)OCCO3)CCCCC1 | inconclusive: 13.1 µM [inhibitor, single point] | –
O=C(CCC(=O)NNC(=O)COc1ccc(Br)cc1)NCc1ccccc1 | – | inactive: 21.2%
CCO[C@@H]1OC(C(=O)N2CCOCC2)=C[C@H](c2ccc(Br)cc2)[C@H]1CCCO | inconclusive: 20.8 µM [inhibitor, single point] | –
COc1ccc(-c2nnc3ccc(SCC(=O)Nc4cc(C)on4)nn23)cc1 | inconclusive: 2.08 µM [inhibitor, single point] | –
Cc1ccc2[nH]c(C)c(CCNCc3cccnc3)c2c1 | inconclusive: 18.5 µM [inhibitor, single point] | –
CCC(C)[C@H](N)c1cn([C@@H](Cc2ccc(O)cc2)C(=O)N2CCNCC2)nn1 (stereo partly specified) | – | inactive: 74.6%
O=C(O)CCCn1cc(NC(=O)c2cc(F)c(F)cc2Cl)cn1 | inconclusive: 0.0066 µM [inhibitor, full curve, poor fit] | –
Cc1ccc(S(=O)(=O)/C(=C/Cl)NC(=O)c2ccccc2)cc1 | inconclusive: 18.5 µM [inhibitor, single point] | –
CC(C)CSC1=NSC2=NC(=O)/C(=C\c3cccs3)C(=N)N12 | – | inactive: -11.7%
Nc1nc(SCC(=O)Nc2c(Br)cc([N+](=O)[O-])cc2Br)n[nH]1 | – | inactive: 35.3%
CCOC(=O)c1c(C)[nH]c(C(=O)C(C)OC(=O)c2ccc(NC(=O)CC#N)cc2)c1C (stereo unspecified) | active: 10.4 µM | –

SMILES | Potency | activity change, negative = inhibition
COC(=O)C1=C(N)OC2=C(C(=O)CC(C)(C)C2)C1c1ccccc1OCC#N (stereo unspecified) | inconclusive: 18.5 µM [inhibitor, single point] | –
Cc1ccc(NC(=O)COC(=O)c2nn(C)cc2Cl)cc1 | – | inactive: 16.6%
Cc1cccc(CN2CCSCC2)c1 | inconclusive: 11.7 µM [inhibitor, single point] | –
O=C(CCNC(=O)C1CCN(S(=O)(=O)c2ccc(F)cc2)CC1)NCCc1ccc(Cl)cc1 | inconclusive: 9.28 µM [inhibitor, partial curve] | –
Cc1ccc(C)c(N(C)C(=O)c2cc3c(=O)[nH]c4ccc(C)cc4c3s2)c1 | inconclusive: 3.29 µM [inhibitor, full curve, poor fit] | –
C=CCn1c(SCc2ccc(C#N)cc2)nnc1-c1cccc(OC)c1 | – | inactive: 25.2%
Cc1cc(C)nc(N/C(=N\S(=O)(=O)Cc2ccccc2)Nc2ccc(F)c(Cl)c2)n1 | active: 9.28 µM | –
NC(=O)[C@@H]1CCCNc2c(F)cc([N+](=O)[O-])cc2C(=O)N[C@@H](CO)C(=O)N[C@@H](Cc2ccc(O)cc2)C(=O)N1 | – | inactive: -13.8%
CC(C)C(=O)Nc1cccc(-c2csc(-c3ccccc3)n2)c1 | inconclusive: 18.5 µM [inhibitor, single point] | –
O=C(N/N=C/c1ccncc1)c1cc2c(ccc3ccccc32)o1 | inconclusive: 1.85 µM [inhibitor, full curve] | –
NC(=O)C1CCN(C(=O)/C=C/c2ccco2)CC1 | – | inactive: -8.22%
CCOc1cc(-c2cc(-c3ccc(NC(C)=O)cc3)nc(N)c2C#N)ccc1O | inconclusive: 9.28 µM [inhibitor, partial curve] | –
CN(C)c1nc(OCCNC(=O)COc2ccc(Cl)cc2Cl)nc(N(C)C)n1 | inconclusive: 18.5 µM [inhibitor, single point] | –
Cc1nccc2c1[nH]c1ccc(Br)cc12 | – | inactive: 17.3%
Cc1ccc(C(=O)Nc2ccc3c(c2)OCCO3)o1 | – | inactive: 275%
Clc1ccc(NNc2ccnc3cc(Cl)ccc23)cc1 | active: 1.65 µM | –
CCCCNC(=NCc1cccc(C(F)(F)F)c1)Nc1ccccc1 | inconclusive: 18.5 µM [inhibitor, single point] | –
O=c1[nH]c(=O)n(Cc2ccco2)c(O)c1/C=N/N1CCCCCC1 | inconclusive: 14.7 µM [inhibitor, single point] | –
O=C1CC(NS(=O)(=O)c2ccc([N+](=O)[O-])cc2)CN1c1ccc2c(c1)OCCO2 (stereo unspecified) | – | inactive: -8.25%
CC1(C)C(=O)Nc2ccccc2N1C(=O)COC(=O)Cn1cnc2ccccc2c1=O | inconclusive: 18.5 µM [inhibitor, single point] | –
CC(C)(C)NC(=O)CN(Cc1ccco1)C(=O)CCC(=O)Nc1nccs1 | inconclusive: 10.4 µM [inhibitor, single point] | –
CCN(CC)S(=O)(=O)c1ccc(C)c(N=C=S)c1 | – | inactive: -1.22%
COc1ccc(CCNC(=O)C23CN(Cc4ccccc4)CC2C(c2cccc([N+](=O)[O-])c2)=NO3)cc1 (stereo unspecified) | inconclusive: 10.4 µM [inhibitor, partial curve, poor fit] | –
COCc1cc(C)nc2sc3c(=O)n(Cc4ccco4)nnc3c12 | inconclusive: 0.104 µM [inhibitor, full curve, poor fit] | –

Grouped by structure, the compounds so far with a thiophene ring, fused or not
SMILES | Potency | activity change, negative = inhibition
Cc1cc(OC(=O)c2cccs2)ccc1C(C)C | inconclusive: 11.7 µM [inhibitor, partial curve, poor fit] | –
Cc1ccccc1NC(=O)c1sc2nc(N3CCOCC3)c3c(c2c1N)CCCC3 | inconclusive: 13.1 µM [inhibitor, single point] | –
CC(C)CSC1=NSC2=NC(=O)/C(=C\c3cccs3)C(=N)N12 | – | inactive: -11.7%
Cc1ccc(C)c(N(C)C(=O)c2cc3c(=O)[nH]c4ccc(C)cc4c3s2)c1 | inconclusive: 3.29 µM [inhibitor, full curve, poor fit] | –
COCc1cc(C)nc2sc3c(=O)n(Cc4ccco4)nnc3c12 | inconclusive: 0.104 µM [inhibitor, full curve, poor fit] | –

Following part:

SMILES | Potency | activity change, negative = inhibition
CN(C)c1ccc(/C=C2/NC(=O)NC2=O)cc1 | inconclusive: 10.4 µM [inhibitor, partial curve, poor fit] | –
CCOc1ccc(S(=O)(=O)N2CCCCC2)cc1NC(=O)CSCc1c(C)noc1C | inconclusive: 10.4 µM [inhibitor, single point] | –
Cc1ccc(Oc2ncccc2COC(=O)Nc2ccccc2C)cc1 | inconclusive: 1.17 µM [inhibitor, partial curve, poor fit] | –
CCCCn1c(N)c(N(CC(C)C)C(=O)CC2OC(=O)c3ccccc32)c(=O)[nH]c1=O (stereo unspecified) | – | inactive: 6.91%
O=C(CC1C(=O)NCCN1Cc1ccoc1)NCc1cccc(OC(F)(F)F)c1 (stereo unspecified) | – | inactive: 16.1%
COc1ccc(C2C=C(c3ccc(Br)cc3)Nc3nc(N4C(=O)CCC4=O)nn32)cc1 (stereo unspecified) | inconclusive: 18.5 µM [inhibitor, single point] | –
COc1ccccc1N1CCN(S(=O)(=O)c2cc3[nH]c(=O)c(=O)[nH]c3cc2C)CC1 | inconclusive: 5.22 µM [inhibitor, partial curve] | –
Cc1cc(C)nc(N2CCC(C(=O)Nc3nnc(C)s3)CC2)n1 | – | inactive: -1.6%
CCCCNC(=O)N1CCCC(N(C)CCc2ccc(OC)c(OC)c2)C1 (stereo unspecified) | inconclusive: 10.4 µM [inhibitor, single point] | –
COc1ccc(N2C(=O)CC(N3CCN(c4ccccc4OC)CC3)C2=O)cc1 (stereo unspecified) | inconclusive: 0.37 µM [inhibitor, partial curve] | –
CCC(=O)N1c2ccccc2NC2=C(C(=O)CCC2)C1c1cccnc1 (stereo unspecified) | – | inactive: 4.52%
O=C(Nc1nnc(-c2ccc3c(c2)OCCO3)o1)c1ccc(Cc2ccccc2)cc1 | – | inactive: 36.1%
C[C@@H]1CC[C@H](O)/C=C/C(=O)O[C@H](C)CC[C@H](O)/C=C/C(=O)O1 | active: 10.4 µM | –
Cc1ccc(Oc2nc(-c3ccccn3)nc3ccccc23)cc1 | active: 5.86 µM | –
CCCn1c(=O)[nH]c(=O)c2c1nc(-c1cc([N+](=O)[O-])ccc1Cl)n2CCOC | inconclusive: 0.0294 µM [inhibitor, full curve, poor fit] | –
CN1CCC(OC(=O)c2ccc(Cl)cc2Cl)CC1 | active: 7.38 µM | –
Cc1ccc(NC(=O)NNc2cccc(Cl)n2)cc1 | inconclusive: 4.15 µM [inhibitor, partial curve, poor fit] | –
NC(=O)c1ccccc1-c1noc(-c2ccccc2F)n1 | inconclusive: 9.28 µM [activator, partial curve] | –
O=C(COCc1cc(-c2ccc3c(c2)OCO3)on1)Nc1cccnc1Cl | inconclusive: 18.5 µM [inhibitor, single point] | –
COc1cc(C(=O)NCCC(=O)NC2CCC(C)CC2)cc(OC)c1OC (stereo unspecified) | – | inactive: 9.62%
O=S(=O)(Nc1ccc(Cc2ccncc2)cc1)c1ccc(Cl)s1 | – | inactive: -1.16%
O=C(Nc1ccc(OC(F)F)c(Cl)c1)[C@@H]1CCCN1C(=O)c1cccs1 | active: 4.15 µM | –
O=C(Oc1cccc(NC(=O)c2ccccc2Cl)c1)c1ccc([N+](=O)[O-])cc1 | inconclusive: 10.4 µM [inhibitor, partial curve] | –
